Laboratory results: publication PMC8973849
No constants are given. Whether binding was seen depends on the method and setting. In cells and extracts the contact can be indirect. Some results given as binding are weak or reduced against the parent protein; the word gives no strength.

Chains of the proteins cited; added tags and fusions are not shown.
UniProt Q9EPU0: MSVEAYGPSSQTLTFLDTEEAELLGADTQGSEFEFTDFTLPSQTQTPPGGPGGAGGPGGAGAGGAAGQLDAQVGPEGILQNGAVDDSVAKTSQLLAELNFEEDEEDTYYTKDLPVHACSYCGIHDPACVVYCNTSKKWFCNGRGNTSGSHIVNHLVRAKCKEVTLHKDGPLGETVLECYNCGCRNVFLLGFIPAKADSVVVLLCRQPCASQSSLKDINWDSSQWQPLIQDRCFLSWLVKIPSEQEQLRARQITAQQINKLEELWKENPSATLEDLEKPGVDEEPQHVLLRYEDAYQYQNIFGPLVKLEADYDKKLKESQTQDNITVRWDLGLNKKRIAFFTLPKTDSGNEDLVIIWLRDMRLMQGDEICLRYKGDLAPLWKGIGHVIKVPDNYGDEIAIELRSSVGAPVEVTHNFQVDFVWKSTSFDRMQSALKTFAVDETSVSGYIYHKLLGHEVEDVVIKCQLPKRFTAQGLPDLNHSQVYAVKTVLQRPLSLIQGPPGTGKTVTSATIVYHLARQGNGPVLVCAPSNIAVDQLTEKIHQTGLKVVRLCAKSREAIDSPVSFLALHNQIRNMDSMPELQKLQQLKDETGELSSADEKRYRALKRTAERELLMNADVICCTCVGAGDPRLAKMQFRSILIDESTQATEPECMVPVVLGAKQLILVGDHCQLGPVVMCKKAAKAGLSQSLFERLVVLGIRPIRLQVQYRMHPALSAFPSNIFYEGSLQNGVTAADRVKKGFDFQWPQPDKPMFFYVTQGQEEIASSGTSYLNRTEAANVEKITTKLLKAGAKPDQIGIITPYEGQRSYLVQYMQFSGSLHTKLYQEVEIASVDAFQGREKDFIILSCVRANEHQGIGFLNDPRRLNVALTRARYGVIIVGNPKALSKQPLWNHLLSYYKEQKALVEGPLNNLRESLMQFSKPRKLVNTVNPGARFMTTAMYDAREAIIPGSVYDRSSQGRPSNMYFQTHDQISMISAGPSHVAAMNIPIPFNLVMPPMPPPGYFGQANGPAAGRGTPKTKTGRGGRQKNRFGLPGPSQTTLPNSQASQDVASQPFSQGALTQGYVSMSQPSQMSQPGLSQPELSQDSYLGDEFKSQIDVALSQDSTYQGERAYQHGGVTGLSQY

T1: SMG7 (mouse (endogenous in ESCs)) (UniProt Q5RJH6)
T1 sequence: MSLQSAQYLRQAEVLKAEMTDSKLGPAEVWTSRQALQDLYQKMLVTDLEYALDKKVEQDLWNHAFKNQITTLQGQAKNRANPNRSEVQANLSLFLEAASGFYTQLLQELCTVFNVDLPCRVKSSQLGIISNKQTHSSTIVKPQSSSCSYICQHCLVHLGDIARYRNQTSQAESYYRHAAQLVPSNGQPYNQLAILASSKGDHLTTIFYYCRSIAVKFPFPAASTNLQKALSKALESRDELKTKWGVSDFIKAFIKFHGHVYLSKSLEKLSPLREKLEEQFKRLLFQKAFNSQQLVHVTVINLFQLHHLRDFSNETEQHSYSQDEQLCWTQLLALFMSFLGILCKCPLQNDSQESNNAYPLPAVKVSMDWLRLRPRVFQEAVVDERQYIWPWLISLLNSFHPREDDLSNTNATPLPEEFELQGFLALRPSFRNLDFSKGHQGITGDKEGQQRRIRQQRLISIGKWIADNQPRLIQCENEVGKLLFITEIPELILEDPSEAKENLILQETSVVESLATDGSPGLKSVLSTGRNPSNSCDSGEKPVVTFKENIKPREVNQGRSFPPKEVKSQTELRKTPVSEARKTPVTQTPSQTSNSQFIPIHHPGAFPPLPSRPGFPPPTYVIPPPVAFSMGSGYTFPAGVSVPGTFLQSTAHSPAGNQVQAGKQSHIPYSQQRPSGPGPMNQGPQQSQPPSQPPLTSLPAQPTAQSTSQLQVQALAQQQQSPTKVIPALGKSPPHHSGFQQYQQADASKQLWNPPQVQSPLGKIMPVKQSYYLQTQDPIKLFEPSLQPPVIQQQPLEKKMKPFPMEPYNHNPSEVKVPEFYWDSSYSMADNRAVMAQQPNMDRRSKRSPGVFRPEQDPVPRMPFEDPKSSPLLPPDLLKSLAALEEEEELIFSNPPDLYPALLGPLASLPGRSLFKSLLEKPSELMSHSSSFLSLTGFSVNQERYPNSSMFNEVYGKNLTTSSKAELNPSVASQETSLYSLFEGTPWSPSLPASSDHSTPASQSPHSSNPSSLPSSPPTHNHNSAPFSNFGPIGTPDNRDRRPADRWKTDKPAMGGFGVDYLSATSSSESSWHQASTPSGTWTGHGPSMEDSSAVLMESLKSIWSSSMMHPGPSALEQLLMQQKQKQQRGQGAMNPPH


Molecular target: T1, SMG7 (mouse (endogenous in ESCs))
Experiment: co-IP; SMG7 or 3xFlag-SMG5 (anti-Flag M2 on Dynabeads) precipitated from 1 mg ESC lysate after cyanase-mediated nucleic acid removal; 150 mM NaCl, 3 h at 4°C; Western blot; WT, Smg5 KO, Smg5/Smg6 dKO and Smg5 Flag rescue-based lines

Molecule | binding
Phosphorylated UPF1 (from UniProt Q9EPU0 1-1124) | binds
SMG5 (protein, UniProt Q6ZPY2 1-1017) MSQGPPPGESSEPEAKVLHTKRLYRAVVEAVHRLDLILCNKAAYQEVFKPENVSLRNKLRELCVKLMFLHPVDYGRKAEELLWRKVYYEVIQLIKTNKKHIHSRSTLECAYRTHLVAGIGFYQHLLLYIQSHYQLELQCCIDWTHVTDPLMGFKKPVSASGKEMDWAQMACHRCLVYLGDLSRYQNELAGVDTELLAERFYYQALSVAPQIGMPFNQLGTLAGSKYYNVEAMYCYLRCIQSEVSFEGAYGNLKRLYDKAAKMYHQLKKSETRKLSPSKKRCKDIKRLLVNFMYLQSLLQPKSSSVDSELTSLCQSVLEDFNLCLFYLPSSPNLGLTNEDEEECESGYAFLPDLLIFQMAIICLMGVHSLKRAGSKHYSAAIAFTLALFSHLINHVNIRLQAELEEGENPVSAFQSDGTDEPESKEALEKEEPEPEPPTVVPQADEGRKSRKHSRLSCLRRRRRHHPPKAGDDSDLSEGFESDSSHDSAQASDGSDSGSDKSLEGRGTAFDAETDSEMNSQESRSDLEDMEDEEGTRSPAQEPPQARSEVPDSLNGPLGPSEASIASNLQAMSTQMFQTKRCFRLAPTFSNLLLQPTTEPNSVASHRPCVNGDMDKPLEPASEDGSESEGSESSNRSCRNERSLQEKLQALMAEGLLPAVKVFLDWLRTNPDLIIVCAQSSQSLWNRLSVLLNLLPASAELQDSGLALCSEVQGLLEGCELPDLPASLLLPEDMALRNLPPLRAAHRRFNFDADRPLLSALEESVVRICCIRSFGHFVARLQGSILQFNPEVGIFVSIAQSEQESLLQQAQAQFRMAEEEARRNRLMRDMAQLRLQLEVSQLEGSLQQPKAQSAMSPYLIPDTQALCYHLPLIRQLATSGRFIIIIPRTVIDGLDLLKKEQPGARDGIRYLEAEFKKGNRYIRCQKEVGKSFERHKLKRQDADAWTLYKILDSCRQLTLAQGAGEEDPSGMVTIITGLHLDSPSALSGPMQAALQAAAHASVDVKNVLDFYRQWKEIG | binds
